Source: patent US20040053310, “Exhaustive selection of RNA aptamers against complex targets” (published 2004)

Tests used:
heat shock factor (HSF) = target: T1, heat shock factor (HSF) (UniProt P22813); assay: EMSA; details: 100 nM HSF, purified recombinant protein
T1 sequence (looked up, limits assumed): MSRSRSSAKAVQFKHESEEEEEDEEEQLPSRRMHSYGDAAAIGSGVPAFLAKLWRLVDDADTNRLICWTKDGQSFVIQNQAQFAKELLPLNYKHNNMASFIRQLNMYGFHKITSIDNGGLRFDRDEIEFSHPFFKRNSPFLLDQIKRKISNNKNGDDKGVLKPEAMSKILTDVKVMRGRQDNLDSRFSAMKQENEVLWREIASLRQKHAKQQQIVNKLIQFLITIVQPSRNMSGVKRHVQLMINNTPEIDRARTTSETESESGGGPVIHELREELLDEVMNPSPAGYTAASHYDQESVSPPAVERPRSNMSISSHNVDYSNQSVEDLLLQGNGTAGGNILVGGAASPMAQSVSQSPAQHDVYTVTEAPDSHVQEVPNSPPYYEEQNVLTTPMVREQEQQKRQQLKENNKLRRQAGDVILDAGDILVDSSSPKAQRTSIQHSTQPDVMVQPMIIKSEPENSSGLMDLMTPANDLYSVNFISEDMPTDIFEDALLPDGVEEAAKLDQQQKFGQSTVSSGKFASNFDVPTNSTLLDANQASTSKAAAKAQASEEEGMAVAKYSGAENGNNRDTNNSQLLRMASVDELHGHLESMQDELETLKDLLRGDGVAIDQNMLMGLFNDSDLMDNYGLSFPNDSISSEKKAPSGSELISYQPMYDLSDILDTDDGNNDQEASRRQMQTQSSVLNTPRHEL

bvHSF (untagged HSF) = target: T2, bvHSF (untagged HSF) (UniProt P22813); assay: EMSA; details: crude Sf9 extract; protein in a lysate after overexpression
T2 sequence (looked up, limits assumed): T1 sequence (looked up, limits assumed)

Question: Does “GGGAGAAUUCAACUGCCAUCUAGGCAAGUAGCUAGGAGUCCUUCUCCCCUCAAAACAGAAUGGGGAGUACUACAAGCUUCUGGACUCGAU [14-2]” bind (heat shock factor (HSF); weaker than RA1-HSF)?
Answer: binds more weakly

Question: Does “GGGAGAAUUCAACUGCCAUCUAGGCAUCGCGAUACAAAAUUAAGUUGAACGCGAGUUCUCCAUCUAGUACUACAAGCUUCUGGACUCGAU [RA1-HSF (14-1)]” bind (bvHSF (untagged HSF))?
Answer: binds

Question: Does “GGGAGAAUUCAACUGCCAUCUAGGCGGCAAGCUACGCGUCAAAUAGCAAGCACACCGAAGACACAAGUACUACAAGCUUCUGGACUCGAU [9a-1]” bind (heat shock factor (HSF); weak affinity)?
Answer: binds more weakly

For part of these data: Weaker means in comparison with the reference protein, sequence or condition of that experiment. Protein sequences can lack the tags named with them. For part of these data: At least one result comes from cells or an extract, where the contact may be indirect.
